# Laboratory results taken from the supplement of paper PMC8728848.
# The other results are listed elsewhere or left out.
# B1: Flo10 (Saccharomyces cerevisiae), P36170 (protein)
# chain: MPVAARYIFLTGLFLLSVANVALGTTEACLPAGEKKNGMTINFYQYSLKDSSTYSNPSYMAYGYADAEKLGSVSGQTKLSIDYSIPCNGASDTCACSDDDATEYSASQVVPVKRGVKLCSDNTTLSSKTEKRENDDCDQGAAYWSSDLFGFYTTPTNVTVEMTGYFLPPKTGTYTFGFATVDDSAILSVGGNVAFECCKQEQPPITSTDFTINGIKPWNADAPTDIKGSTYMYAGYYYPIKIVYSNAVSWGTLPVSVVLPDGTEVNDDFEGYVFSFDDNATQAHCSVPNPAEHARTCVSSATSSWSSSEVCTECTETESTSYVTPYVTSSSWSSSEVCTECTETESTSTSTPYVTSSSSSSSEVCTECTETESTSYVTPYVSSSTAAANYTSSFSSSSEVCTECTETESTSTSTPYVTSSSWSSSEVCTECTETESTSYVTPYVSSSTAAANYTSSFSSSSEVCTECTETESTSTSTPYVTSSSSSSSEVCTECTETESTSYVTPYVSSSTAAANYTSSFSSSSEVCTECTETESTSTSTPYVTSSSWSSSEVCTECTETESTSYVTPYVSSSTAAANYTSSFSSSSEVCTECTETESTSTSTPYATSSTGTATSFTASTSNTMTSLVQTDTTVSFSLSSTVSEHTNAPTSSVESNASTFISSNKGSVKSYVTSSIHSITPMYPSNQTVTSSSVVSTPITSESSESSASVTILPSTITSEFKPSTMKTKVVSISSSPTNLITSYDTTSKDSTVGSSTSSVSLISSISLPSSYSASSEQIFHSSIVSSNGQALTSFSSTKVSSSESSESHRTSPTTSSESGIKSSGVEIESTSTSSFSFHETSTASTSVQISSQFVTPSSPISTVAPRSTGLNSQTESTNSSKETMSSENSASVMPSSSATSPKTGKVTSDETSSGFSRDRTTVYRMTSETPSTNEQTTLITVSSCESNSCSNTVSSAVVSTATTTINGITTEYTTWCPLSATELTTVSKLESEEKTTLITVTSCESGVCSETASPAIVSTATATVNDVVTVYSTWSPQATNKLAVSSDIENSASKASFVSEAAETKSISRNNNFVPTSGTTSIETHTTTTSNASENSDNVSASEAVSSKSVTNPVLISVSQQPRGTPASSMIGSSTASLEMSSYLGIANHLLTNSGISIFIASLLLAIV
# Experiments:
# Assay in all cases: glycan array binding signal (z-score within array); higher = stronger binding
# Settings in all cases: glycan notation: IUPAC condensed, linker removed
# [1] = target: Gal(b1-3)GalNAc(a1-3)[Fuc(a1-2)]Gal(b1-4)GlcNAc
# Method in brief: (§1)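 The binding signal is a Z-score computed within each array and averaged over linkers. Arrays of the same protein sequence at different concentrations or buffers were also averaged together. Data originate from 3228 arrays in the Consortium for Functional Glycomics database, kept only where the protein sequence was available.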
# [2] = target: Gal(b1-3)GalNAc(b1-3)Gal(a1-4)Gal(b1-4)Glc
# Method in brief: as §1
# [3] = target: Gal(b1-3)GalNAc(b1-4)Gal(b1-4)Glc
# Method in brief: as §1
# [4] = target: Gal(b1-3)GalNAc(b1-4)[Neu5Ac(a2-3)]Gal(b1-4)Glc
# Method in brief: as §1
# Gal(b1-3)GlcNAc = target: Gal(b1-3)GlcNAc
# Method in brief: as §1
# [5] = target: Gal(b1-3)GlcNAc(a1-6)Gal(b1-4)GlcNAc
# Method in brief: as §1
# [6] = target: Gal(b1-3)GlcNAc(b1-2)Man(a1-3)[Gal(b1-3)GlcNAc(b1-2)Man(a1-6)]Man(b1-4)GlcNAc(b1-4)GlcNAc
# Method in brief: as §1
# [7] = target: Gal(b1-3)GlcNAc(b1-2)Man(a1-3)[Gal(b1-3)GlcNAc(b1-2)Man(a1-6)]Man(b1-4)GlcNAc(b1-4)[Fuc(a1-6)]GlcNAc
# Method in brief: as §1
# [8] = target: Gal(b1-3)GlcNAc(b1-3)Gal(b1-3)GlcNAc
# Method in brief: as §1
# [9] = target: Gal(b1-3)GlcNAc(b1-3)Gal(b1-4)Glc
# Method in brief: as §1
# [10] = target: Gal(b1-3)GlcNAc(b1-3)Gal(b1-4)GlcNAc
# Method in brief: as §1
# [11] = target: Gal(b1-3)GlcNAc(b1-3)Gal(b1-4)GlcNAc(b1-6)[Gal(b1-3)GlcNAc(b1-3)]Gal(b1-4)Glc
# Method in brief: as §1
# [12] = target: Gal(b1-3)GlcNAc(b1-3)Gal(b1-4)[Fuc(a1-3)]GlcNAc(b1-6)[Gal(b1-3)GlcNAc(b1-3)]Gal(b1-4)Glc
# Method in brief: as §1
# [13] = target: Gal(b1-3)GlcNAc(b1-3)GalNAc
# Method in brief: as §1
# [14] = target: Gal(b1-3)GlcNAc(b1-6)Gal(b1-4)GlcNAc
# Method in brief: as §1
# [15] = target: Gal(b1-3)[Fuc(a1-4)]GlcNAc
# Method in brief: as §1
# [16] = target: Gal(b1-3)[Fuc(a1-4)]GlcNAc(b1-2)Man(a1-3)[Gal(b1-3)[Fuc(a1-4)]GlcNAc(b1-2)Man(a1-6)]Man(b1-4)GlcNAc(b1-4)GlcNAc
# Method in brief: as §1
# [17] = target: Gal(b1-3)[Fuc(a1-4)]GlcNAc(b1-2)Man(a1-3)[Gal(b1-3)[Fuc(a1-4)]GlcNAc(b1-2)Man(a1-6)]Man(b1-4)GlcNAc(b1-4)[Fuc(a1-6)]GlcNAc
# Method in brief: as §1
# [18] = target: Gal(b1-3)[Fuc(a1-4)]GlcNAc(b1-3)Gal(b1-3)[Fuc(a1-4)]GlcNAc
# Method in brief: as §1
# [19] = target: Gal(b1-3)[Fuc(a1-4)]GlcNAc(b1-3)Gal(b1-4)GlcNAc
# Method in brief: as §1
# [20] = target: Gal(b1-3)[Fuc(a1-4)]GlcNAc(b1-3)Gal(b1-4)[Fuc(a1-3)]GlcNAc
# Method in brief: as §1
# [21] = target: Gal(b1-3)[GlcNAc(b1-6)]GalNAc
# Method in brief: as §1
# [22] = target: Gal(b1-3)[Neu5Ac(a2-6)]GalNAc
# Method in brief: as §1
# [23] = target: Gal(b1-3)[Neu5Ac(a2-6)]GlcNAc(b1-6)Gal(b1-4)Glc
# Method in brief: as §1
# [24] = target: Gal(b1-3)[Neu5Ac(b2-6)]GalNAc
# Method in brief: as §1
# [25] = target: Gal(b1-4)GalNAc(a1-3)[Fuc(a1-2)]Gal(b1-4)GlcNAc
# Method in brief: as §1
# [26] = target: Gal(b1-4)GalNAc(b1-3)[Fuc(a1-2)]Gal(b1-4)GlcNAc
# Method in brief: as §1
# Gal(b1-4)Glc = target: Gal(b1-4)Glc
# Method in brief: as §1
# Gal(b1-4)Glc6S = target: Gal(b1-4)Glc6S
# Method in brief: as §1
# Gal(b1-4)GlcNAc = target: Gal(b1-4)GlcNAc
# Method in brief: as §1
binder,measurement,setting,value
B1,glycan array binding signal (z-score),[1],0.039
same,glycan array binding signal (z-score),[2],-0.171
same,glycan array binding signal (z-score),[3],-0.568
same,glycan array binding signal (z-score),[4],0.092
same,glycan array binding signal (z-score),Gal(b1-3)GlcNAc,1.29
same,glycan array binding signal (z-score),[5],0.52
same,glycan array binding signal (z-score),[6],-0.791
same,glycan array binding signal (z-score),[7],-0.507
same,glycan array binding signal (z-score),[8],3.58
same,glycan array binding signal (z-score),[9],-0.532
same,glycan array binding signal (z-score),[10],0.23
same,glycan array binding signal (z-score),[11],-0.581
same,glycan array binding signal (z-score),[12],0.044
same,glycan array binding signal (z-score),[13],0.31
same,glycan array binding signal (z-score),[14],0.942
same,glycan array binding signal (z-score),[15],0.019
same,glycan array binding signal (z-score),[16],0.49
same,glycan array binding signal (z-score),[17],0.232
same,glycan array binding signal (z-score),[18],-0.761
same,glycan array binding signal (z-score),[19],-0.612
same,glycan array binding signal (z-score),[20],-0.45
same,glycan array binding signal (z-score),[21],-0.789
same,glycan array binding signal (z-score),[22],-0.655
same,glycan array binding signal (z-score),[23],-0.584
same,glycan array binding signal (z-score),[24],-0.761
same,glycan array binding signal (z-score),[25],1.26
same,glycan array binding signal (z-score),[26],1.8
same,glycan array binding signal (z-score),Gal(b1-4)Glc,0.534
same,glycan array binding signal (z-score),Gal(b1-4)Glc6S,0.599
same,glycan array binding signal (z-score),Gal(b1-4)GlcNAc,0.297

# Fetched one by one from above:
binder,measurement,setting,value
B1,glycan array binding signal (z-score),Gal(b1-4)GlcNAc,0.297
same,glycan array binding signal (z-score),[14],0.942
